Laboratory results taken from the supplement of paper PMC10849652.
The list shows a part of the results.

Amino acid sequences for entries named in this document (tags omitted). A change or cut given only in a name is not applied to a line headed by its entry.
UniProt Q9BTF0: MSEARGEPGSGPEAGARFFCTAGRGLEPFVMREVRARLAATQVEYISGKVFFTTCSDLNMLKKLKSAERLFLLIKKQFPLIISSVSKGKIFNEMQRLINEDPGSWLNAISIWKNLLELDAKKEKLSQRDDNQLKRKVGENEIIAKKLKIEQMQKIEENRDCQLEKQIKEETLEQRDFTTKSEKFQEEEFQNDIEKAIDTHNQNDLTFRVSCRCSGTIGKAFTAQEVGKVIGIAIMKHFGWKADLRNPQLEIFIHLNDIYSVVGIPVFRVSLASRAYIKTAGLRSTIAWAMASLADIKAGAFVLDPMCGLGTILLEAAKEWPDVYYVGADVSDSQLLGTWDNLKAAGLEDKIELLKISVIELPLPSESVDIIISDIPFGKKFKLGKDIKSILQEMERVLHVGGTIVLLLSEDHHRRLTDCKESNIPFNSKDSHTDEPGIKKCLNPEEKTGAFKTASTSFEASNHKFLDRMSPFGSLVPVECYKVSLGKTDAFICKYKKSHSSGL
UniProt Q9UM00: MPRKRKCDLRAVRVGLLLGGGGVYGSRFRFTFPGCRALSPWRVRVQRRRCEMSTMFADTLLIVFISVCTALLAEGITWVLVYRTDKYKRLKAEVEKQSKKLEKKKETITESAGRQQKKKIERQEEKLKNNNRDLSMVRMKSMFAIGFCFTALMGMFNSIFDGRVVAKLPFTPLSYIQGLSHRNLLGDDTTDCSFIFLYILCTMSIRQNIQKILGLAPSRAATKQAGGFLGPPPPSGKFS
UniProt Q969X1: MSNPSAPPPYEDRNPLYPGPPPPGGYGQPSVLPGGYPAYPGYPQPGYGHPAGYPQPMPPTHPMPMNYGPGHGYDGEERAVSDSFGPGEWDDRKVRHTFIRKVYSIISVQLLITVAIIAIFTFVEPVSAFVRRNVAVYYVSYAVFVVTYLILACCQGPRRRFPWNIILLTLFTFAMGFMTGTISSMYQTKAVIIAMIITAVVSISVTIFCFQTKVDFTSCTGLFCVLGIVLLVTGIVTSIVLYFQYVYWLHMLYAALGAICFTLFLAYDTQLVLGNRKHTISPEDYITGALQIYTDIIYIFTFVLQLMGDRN
UniProt Q9BXJ8: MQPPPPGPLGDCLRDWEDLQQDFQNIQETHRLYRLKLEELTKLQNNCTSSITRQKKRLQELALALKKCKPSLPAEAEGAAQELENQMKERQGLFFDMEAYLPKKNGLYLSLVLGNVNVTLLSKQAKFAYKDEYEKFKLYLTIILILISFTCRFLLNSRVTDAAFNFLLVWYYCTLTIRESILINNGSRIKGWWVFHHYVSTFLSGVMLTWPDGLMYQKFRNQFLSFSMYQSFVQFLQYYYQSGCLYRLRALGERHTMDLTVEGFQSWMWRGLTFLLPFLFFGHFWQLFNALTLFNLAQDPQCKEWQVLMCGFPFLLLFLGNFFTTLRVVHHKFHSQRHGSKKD
UniProt O14925: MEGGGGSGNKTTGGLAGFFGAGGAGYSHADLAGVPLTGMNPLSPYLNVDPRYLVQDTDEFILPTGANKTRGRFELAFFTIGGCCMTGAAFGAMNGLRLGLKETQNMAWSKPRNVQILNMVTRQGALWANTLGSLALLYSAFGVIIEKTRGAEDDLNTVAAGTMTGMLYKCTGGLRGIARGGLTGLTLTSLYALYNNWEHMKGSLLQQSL
UniProt Q92544: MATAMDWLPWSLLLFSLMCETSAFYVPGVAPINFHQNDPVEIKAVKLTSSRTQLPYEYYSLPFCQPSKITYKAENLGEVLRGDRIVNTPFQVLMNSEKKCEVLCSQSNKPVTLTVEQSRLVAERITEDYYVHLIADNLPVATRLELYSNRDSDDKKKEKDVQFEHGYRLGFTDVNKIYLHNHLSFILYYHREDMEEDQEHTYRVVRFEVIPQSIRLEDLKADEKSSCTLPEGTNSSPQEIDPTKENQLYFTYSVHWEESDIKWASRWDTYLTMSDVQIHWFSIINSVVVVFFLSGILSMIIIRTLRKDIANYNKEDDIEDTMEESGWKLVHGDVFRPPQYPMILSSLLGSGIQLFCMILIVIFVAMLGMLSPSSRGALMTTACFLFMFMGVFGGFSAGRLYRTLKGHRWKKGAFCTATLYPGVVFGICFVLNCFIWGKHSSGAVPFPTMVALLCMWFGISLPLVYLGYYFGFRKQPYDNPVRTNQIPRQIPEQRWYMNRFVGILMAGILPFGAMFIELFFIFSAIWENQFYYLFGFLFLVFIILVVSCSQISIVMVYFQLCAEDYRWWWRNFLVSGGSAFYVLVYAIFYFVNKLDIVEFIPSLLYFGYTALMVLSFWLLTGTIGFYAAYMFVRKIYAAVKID
UniProt Q5U3C3: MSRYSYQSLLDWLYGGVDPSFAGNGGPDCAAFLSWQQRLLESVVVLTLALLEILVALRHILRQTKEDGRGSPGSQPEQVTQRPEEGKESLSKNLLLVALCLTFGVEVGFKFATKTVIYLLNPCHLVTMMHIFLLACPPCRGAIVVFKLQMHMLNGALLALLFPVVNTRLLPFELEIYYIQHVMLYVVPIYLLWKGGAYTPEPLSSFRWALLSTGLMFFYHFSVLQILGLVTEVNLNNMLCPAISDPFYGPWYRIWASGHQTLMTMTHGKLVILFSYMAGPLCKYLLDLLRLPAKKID
UniProt Q9P016: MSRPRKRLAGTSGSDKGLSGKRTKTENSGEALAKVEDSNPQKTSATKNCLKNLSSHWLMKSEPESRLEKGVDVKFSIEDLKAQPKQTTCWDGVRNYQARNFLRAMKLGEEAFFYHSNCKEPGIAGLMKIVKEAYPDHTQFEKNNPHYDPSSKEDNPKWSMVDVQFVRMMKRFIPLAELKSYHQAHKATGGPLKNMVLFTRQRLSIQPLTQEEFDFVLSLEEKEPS
UniProt Q8IYQ7: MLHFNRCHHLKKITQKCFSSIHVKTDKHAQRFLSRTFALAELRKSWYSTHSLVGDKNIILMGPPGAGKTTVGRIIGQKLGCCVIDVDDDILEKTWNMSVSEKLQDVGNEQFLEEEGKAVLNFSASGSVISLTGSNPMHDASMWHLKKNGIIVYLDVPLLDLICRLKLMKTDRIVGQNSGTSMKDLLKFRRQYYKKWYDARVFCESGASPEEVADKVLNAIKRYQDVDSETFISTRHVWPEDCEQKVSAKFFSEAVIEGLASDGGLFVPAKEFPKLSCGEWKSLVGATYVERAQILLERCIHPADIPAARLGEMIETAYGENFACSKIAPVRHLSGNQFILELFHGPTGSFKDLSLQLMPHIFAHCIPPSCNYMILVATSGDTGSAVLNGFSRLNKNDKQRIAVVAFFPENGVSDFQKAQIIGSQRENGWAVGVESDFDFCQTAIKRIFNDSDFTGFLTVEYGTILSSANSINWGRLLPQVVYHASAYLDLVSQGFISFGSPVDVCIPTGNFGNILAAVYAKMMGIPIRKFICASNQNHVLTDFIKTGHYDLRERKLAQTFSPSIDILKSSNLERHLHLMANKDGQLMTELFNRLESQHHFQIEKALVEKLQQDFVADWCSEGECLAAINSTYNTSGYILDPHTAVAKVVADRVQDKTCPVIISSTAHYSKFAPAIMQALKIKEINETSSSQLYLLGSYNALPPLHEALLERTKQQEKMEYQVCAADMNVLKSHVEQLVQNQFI
UniProt P55061, whole entry, looked up: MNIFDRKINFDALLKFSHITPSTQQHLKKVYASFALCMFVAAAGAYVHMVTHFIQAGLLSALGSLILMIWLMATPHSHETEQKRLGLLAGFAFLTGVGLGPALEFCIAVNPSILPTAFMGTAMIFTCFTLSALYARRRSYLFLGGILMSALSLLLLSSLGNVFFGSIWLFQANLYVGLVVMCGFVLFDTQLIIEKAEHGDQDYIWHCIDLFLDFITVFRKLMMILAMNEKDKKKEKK
UniProt Q9BVC6: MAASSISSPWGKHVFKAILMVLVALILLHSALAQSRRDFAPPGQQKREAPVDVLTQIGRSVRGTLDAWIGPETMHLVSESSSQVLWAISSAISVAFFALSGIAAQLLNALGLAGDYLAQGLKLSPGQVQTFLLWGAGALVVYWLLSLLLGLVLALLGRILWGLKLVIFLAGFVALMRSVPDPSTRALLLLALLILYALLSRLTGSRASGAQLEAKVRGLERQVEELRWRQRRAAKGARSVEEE
UniProt Q04727: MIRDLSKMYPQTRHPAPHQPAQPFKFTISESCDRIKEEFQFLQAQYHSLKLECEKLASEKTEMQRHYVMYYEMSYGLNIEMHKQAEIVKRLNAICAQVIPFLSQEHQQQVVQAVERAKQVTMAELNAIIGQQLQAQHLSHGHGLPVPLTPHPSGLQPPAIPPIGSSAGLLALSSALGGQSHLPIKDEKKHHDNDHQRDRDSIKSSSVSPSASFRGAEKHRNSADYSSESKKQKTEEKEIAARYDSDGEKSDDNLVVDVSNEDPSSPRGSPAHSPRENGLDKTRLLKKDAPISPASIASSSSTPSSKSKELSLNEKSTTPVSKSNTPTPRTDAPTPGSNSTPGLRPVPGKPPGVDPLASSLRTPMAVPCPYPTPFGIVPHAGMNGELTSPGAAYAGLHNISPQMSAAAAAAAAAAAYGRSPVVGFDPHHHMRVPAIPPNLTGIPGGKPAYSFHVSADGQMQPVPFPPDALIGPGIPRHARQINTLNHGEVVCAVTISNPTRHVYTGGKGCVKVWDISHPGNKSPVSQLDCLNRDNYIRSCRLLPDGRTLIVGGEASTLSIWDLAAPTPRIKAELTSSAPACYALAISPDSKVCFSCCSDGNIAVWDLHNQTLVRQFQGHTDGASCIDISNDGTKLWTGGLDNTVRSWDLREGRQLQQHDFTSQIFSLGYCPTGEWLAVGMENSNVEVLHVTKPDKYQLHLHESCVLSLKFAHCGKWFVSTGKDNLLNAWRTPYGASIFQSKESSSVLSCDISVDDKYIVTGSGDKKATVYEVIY
UniProt Q9BSF4: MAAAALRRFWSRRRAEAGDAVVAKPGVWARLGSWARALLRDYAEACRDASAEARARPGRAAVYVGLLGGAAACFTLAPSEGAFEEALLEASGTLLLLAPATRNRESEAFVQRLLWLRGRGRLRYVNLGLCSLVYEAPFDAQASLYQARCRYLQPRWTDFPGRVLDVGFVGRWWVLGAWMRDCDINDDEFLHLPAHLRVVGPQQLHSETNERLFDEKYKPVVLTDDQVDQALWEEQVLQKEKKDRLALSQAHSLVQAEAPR
UniProt Q9H061: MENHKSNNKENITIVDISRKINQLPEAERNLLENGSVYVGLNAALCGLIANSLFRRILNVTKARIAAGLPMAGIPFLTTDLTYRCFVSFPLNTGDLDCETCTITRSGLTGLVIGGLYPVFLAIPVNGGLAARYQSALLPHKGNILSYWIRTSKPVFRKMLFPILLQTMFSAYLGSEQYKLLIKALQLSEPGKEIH
UniProt Q9Y2S6, whole entry, looked up: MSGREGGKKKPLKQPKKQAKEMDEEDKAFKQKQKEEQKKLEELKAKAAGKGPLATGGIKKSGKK
UniProt Q5T1C6: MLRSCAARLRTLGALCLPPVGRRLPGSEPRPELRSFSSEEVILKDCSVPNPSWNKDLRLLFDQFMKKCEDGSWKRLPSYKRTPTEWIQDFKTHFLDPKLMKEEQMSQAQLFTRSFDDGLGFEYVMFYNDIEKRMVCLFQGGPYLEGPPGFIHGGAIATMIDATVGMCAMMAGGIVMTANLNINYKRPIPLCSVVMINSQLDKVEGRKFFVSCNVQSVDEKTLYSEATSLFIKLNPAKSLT
UniProt Q99595: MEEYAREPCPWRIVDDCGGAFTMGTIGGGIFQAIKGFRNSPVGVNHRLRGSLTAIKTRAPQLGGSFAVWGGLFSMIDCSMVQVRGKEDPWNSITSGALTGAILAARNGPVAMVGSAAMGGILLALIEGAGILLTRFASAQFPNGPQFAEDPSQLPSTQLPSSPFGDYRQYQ
UniProt O60830: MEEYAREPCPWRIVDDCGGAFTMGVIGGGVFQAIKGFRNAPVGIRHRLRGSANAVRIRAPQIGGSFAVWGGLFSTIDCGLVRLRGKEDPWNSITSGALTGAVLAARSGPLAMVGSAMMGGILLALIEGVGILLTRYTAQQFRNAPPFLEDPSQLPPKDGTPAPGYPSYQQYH
UniProt Q6PL24: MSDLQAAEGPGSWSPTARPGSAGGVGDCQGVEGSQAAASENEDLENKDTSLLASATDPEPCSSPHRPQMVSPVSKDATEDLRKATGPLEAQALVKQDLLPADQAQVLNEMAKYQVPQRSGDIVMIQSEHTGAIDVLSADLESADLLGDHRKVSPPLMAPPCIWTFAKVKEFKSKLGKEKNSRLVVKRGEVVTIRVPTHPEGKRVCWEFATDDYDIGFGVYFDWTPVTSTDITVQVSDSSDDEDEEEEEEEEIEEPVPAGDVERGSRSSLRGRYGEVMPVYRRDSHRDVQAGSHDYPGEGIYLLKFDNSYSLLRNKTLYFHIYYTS
UniProt Q01085: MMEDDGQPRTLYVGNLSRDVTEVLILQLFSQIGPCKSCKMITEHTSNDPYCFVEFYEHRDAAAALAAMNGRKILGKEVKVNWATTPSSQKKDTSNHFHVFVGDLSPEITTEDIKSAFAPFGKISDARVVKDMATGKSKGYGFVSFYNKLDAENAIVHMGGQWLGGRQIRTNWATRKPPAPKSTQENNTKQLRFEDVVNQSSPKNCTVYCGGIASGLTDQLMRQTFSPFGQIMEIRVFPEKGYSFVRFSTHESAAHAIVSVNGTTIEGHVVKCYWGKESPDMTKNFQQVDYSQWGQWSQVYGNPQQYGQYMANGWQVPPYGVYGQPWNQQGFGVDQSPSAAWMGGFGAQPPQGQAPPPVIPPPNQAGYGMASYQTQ

compound: C[C@H](Nc1ncnc2nc[nH]c12)c1cc2cccc(Cl)c2c(=O)n1-c1ccccc1 [duvelisib]; assay: log2 fold change, soluble protein after heating vs DMSO (PISA); higher = thermal stabilisation; K562 lysate, 10 uM; active = over 0.2 and 3.5 SD of the protein, either way, in both replicates (recomputed)
Procedure, shortened: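 Log-two fold change in thermal stability relative to solvent controls is reported from duplicates. For each sample, crude K562 extract from dounce-homogenised pellets in PBS pH 7.4 with 1 mM MgCl2, at 1 mg/mL protein, was treated with 10 μM compound for 30 min. Aliquots heated for 3 min across 48°C-58°C were pooled, brought to 0.5% NP-40 at 4°C and cleared at 21,000xg for 90 min. The supernatant was quantified by TMTpro 16plex LC-MS/MS with channel sums equalised.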

log2 fold change, inactive:
TICAM2 isoform 2 (UniProt Q86XR7) -0.002
THUMPD2 (UniProt Q9BTF0) 0.042
TMCO1 (UniProt Q9UM00) -0.02
TGOLN2 isoform 7 (UniProt O43493) 0.021
TMBIM1 (UniProt Q969X1) -0.005
TMEM120A (UniProt Q9BXJ8) 0.026
TIMMDC1 (UniProt Q9NPL8) 0.027
TIMM23 (UniProt O14925) -0.002
TJP2 isoform 7 (UniProt Q9UDY2) 0.037
TMEM185B (UniProt Q9H7F4) -0.01
TM9SF4 (UniProt Q92544) -0.032
TMEM168 (UniProt Q9H0V1) 0.038
TMEM164 (UniProt Q5U3C3) 0.131
THYN1 (UniProt Q9P016) -0.023
THNSL1 (UniProt Q8IYQ7) 0.017
TMBIM6 isoform 2 (UniProt P55061) -0.031
THOP1 (UniProt P52888) 0.011
TMCO6 isoform 2 (UniProt Q96DC7) 0.049
TMEM109 (UniProt Q9BVC6) -0.016
THOC5 (UniProt Q13769) -0.009
THOC1 (UniProt Q96FV9) 0.009
TLE4 isoform 3 (UniProt Q04727) 0.009
TGS1 (UniProt Q96RS0) 0.012
TIMM29 (UniProt Q9BSF4) -0.01
TLN2 (UniProt Q9Y4G6) -0.005
TMEM126A (UniProt Q9H061) 0.075
TMED5 (UniProt Q9Y3A6) 0.019
TMA7 (UniProt Q9Y2S6) -0.011
TIMM22 (UniProt Q9Y584) 0.03
TMEM161A (UniProt Q9NX61) 0.032
TIMM44 (UniProt O43615) -0.003
THEM4 (UniProt Q5T1C6) 0.012
TMED10 (UniProt P49755) 0.017
TMA16 (UniProt Q96EY4) -0.019
TIPRL (UniProt O75663) 0.016
TIMM17A (UniProt Q99595) 0.06
TIMM17B (UniProt O60830) 0.006
TIMM50 isoform 2 (UniProt Q3ZCQ8) 0.011
TMED8 (UniProt Q6PL24) -0.03
TIAL1 isoform 2 (UniProt Q01085) -0.014

At a glance, part of the list above:
log2 fold change, inactive:
TMA7 (UniProt Q9Y2S6) -0.011
TIMM22 (UniProt Q9Y584) 0.03
